Source: publication PMC7563795
These are yes or no findings as the source states them, for the method shown. In cells and extracts the contact can be indirect. Some binding calls cover weakened binding; strength is not graded here. Where a sequence is shown, tags or fusion partners need not be part of it.

Amino acid sequences for entries named in this document (tags omitted).
UniProt A0A8V0X930: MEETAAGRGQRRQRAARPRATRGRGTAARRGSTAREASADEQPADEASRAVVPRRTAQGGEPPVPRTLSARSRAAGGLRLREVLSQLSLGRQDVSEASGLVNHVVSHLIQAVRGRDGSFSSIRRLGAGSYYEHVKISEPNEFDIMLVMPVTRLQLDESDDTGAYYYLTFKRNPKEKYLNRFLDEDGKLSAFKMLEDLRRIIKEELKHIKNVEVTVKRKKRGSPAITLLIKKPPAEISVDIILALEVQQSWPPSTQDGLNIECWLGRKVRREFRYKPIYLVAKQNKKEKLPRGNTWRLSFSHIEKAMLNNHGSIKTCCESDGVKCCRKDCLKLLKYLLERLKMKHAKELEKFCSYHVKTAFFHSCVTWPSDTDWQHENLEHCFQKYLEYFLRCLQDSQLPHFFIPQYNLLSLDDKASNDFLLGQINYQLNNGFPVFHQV

Molecular target: T1, chicken STING with C-terminal 3FLAG tag (chSTING-3FLAG) (chicken) (UniProt E1C7U0)
T1 sequence: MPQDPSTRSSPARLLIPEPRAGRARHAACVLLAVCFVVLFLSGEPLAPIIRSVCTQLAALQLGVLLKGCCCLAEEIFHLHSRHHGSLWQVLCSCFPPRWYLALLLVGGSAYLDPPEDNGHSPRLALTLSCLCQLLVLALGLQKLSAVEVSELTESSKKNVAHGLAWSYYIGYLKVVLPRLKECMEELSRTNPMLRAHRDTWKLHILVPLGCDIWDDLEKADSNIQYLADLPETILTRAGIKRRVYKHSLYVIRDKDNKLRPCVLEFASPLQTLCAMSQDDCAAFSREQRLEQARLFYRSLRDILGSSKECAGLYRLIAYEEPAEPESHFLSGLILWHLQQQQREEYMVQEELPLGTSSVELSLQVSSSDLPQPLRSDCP
Test: co-IP; chcGAS-HA and chSTING-FLAG co-transfected into 293T cells (6-well plate); cleared lysates incubated with 1 ug anti-FLAG antibody at 4 °C overnight, then Protein A/G PLUS-Agarose; Western blot with anti-FLAG and anti-HA mAbs

binding: binds
Substance: chicken cGAS with C-terminal 2HA tag (chcGAS-2HA) (from UniProt A0A8V0X930 1-438)
